This is one part of the list. Further columns of the screen follow, without active or inactive calls. The list favours compounds with an active or inconclusive main result. The note in brackets gives the kind of curve behind each potency; many fits are weak.
Experiment: qHTS Assay for Modulators of Lamin A Splicing
Details: HeLa LMNA splicing GFP/RFP minigene ratio, 48 h
How it was run: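 S3 HeLa cells stably expressing lamin A-EGFP splicing minigene plus DsRed2, 600 cells/well, 48 h compound exposure at 37C. Laser-scanning cytometry; analysed as GFP (500-530 nm)/RFP (575-640 nm) total intensity ratio; 0.5% DMSO vehicle.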

[1] = measured here: RFP viability control channel
[2] = measured here: GFP splicing reporter channel

For `Cc1[nH]n(-c2ccccc2)c(=O)c1Sc1ccc(Cl)cc1`, the AC50 [1] was 31.6 µM [rising, single point].

In the case of `CC(NC(=O)C(NC(=O)C(Cc1c[nH]c2ccccc12)NC(=O)OC(C)(C)C)C(C)C)C(N)=O` (stereo unspecified), the AC50 [2] is reported as 35.5 µM [rising, partial curve, poor fit].

With `Cc1ccc(C(=O)Nc2nc(=O)n(C(=O)CC(C)C)s2)cc1` the AC50 [2] was 25.1 µM [falling, single point] and the AC50 [1] was 35.5 µM [falling, single point].

For `COc1ccc(C(=O)Nc2ccc3nc(SCC(=O)N4CCCC4)sc3c2)cc1`, the AC50 [1] was 0.0178 µM [falling, full curve, poor fit].

With `CC(C)(C)SCCNC(=O)/C=C/c1ccc([N+](=O)[O-])cc1` the AC50 [1] was 28.2 µM [rising, partial curve].

In the case of `CCn1cc(C2=NOC(C(=O)Nc3cccc(C(C)=O)c3)C2)c(C)n1` (stereo unspecified), the AC50 [2] is reported as 1.58 µM [rising, full curve] and the AC50 [1] is reported as 14.1 µM [rising, partial curve].

With `CCN(CC)Cc1c(O)ccc2c(=O)c(-c3ccc4c(c3)OCCO4)coc12` the AC50 [1] was 22.4 µM [rising, single point].

For `CCCNC(=O)NC(=O)COC(=O)c1ccc(S(=O)(=O)N(C)c2ccccc2OC)cc1`, the AC50 [1] was 3.55 µM [rising, full curve].

For `Cc1ccc(S(=O)(=O)N2CCC(c3nc4c(nnn4Cc4ccccc4)c(=O)[nH]3)CC2)cc1`, the AC50 [1] was 3.98 µM [falling, single point].

For `CC(=O)c1ccc2c(c1)C1C=CCC1C(c1ccc(S(=O)(=O)N3CCOCC3)cc1)N2` (stereo unspecified), the AC50 [2] was 2.51 µM [rising, partial curve] and the AC50 [1] was 2.51 µM [rising, single point].

In the case of `COc1ccc(NS(=O)(=O)c2ccc(OC)c(OC)c2)cc1OC`, the AC50 [1] is reported as 17.8 µM [rising, single point].

In the case of `c1cncc(CNc2ncnc3ccc(-c4ccoc4)cc23)c1`, the AC50 [2] is reported as 2.51 µM [falling, partial curve].

With `CCc1ccc2[nH]c(=O)c(CN(Cc3ccccc3OC)Cc3nnnn3Cc3ccco3)cc2c1` the AC50 [2] was 35.5 µM [falling, single point] and the AC50 [1] was 35.5 µM [falling, single point].

In the case of `CCc1[nH]c(C(=O)O)c(C)c1C(=O)OC`, the AC50 [1] is reported as 0.00501 µM [falling, full curve, poor fit].

With `CCn1ccc2c(OCC(=O)Nc3ccc(C)c(Cl)c3)cccc2c1=O` the AC50 [2] was 35.5 µM [falling, single point] and the AC50 [1] was 0.01 µM [falling, full curve, poor fit].

With `O=C(COC(=O)c1cnccn1)c1ccc(Cl)cc1` the AC50 [2] was 1.41 µM [falling, partial curve].

With `N#C/C(=C\c1cccn1-c1ccccc1)C(=O)NC1CCCCC1` the AC50 [1] was 3.98 µM [rising, full curve, poor fit].

With `CCCN(CCC)c1nc(Cl)nc(NCc2ccco2)n1` the AC50 [1] was 0.0501 µM [rising, single point].

For `O=C(/C=C/c1ccc(Cl)cc1Cl)Nc1ccc(CN2CCOCC2)cc1`, the AC50 [2] was 7.94 µM [rising, partial curve, poor fit] and the AC50 [1] was 7.94 µM [rising, partial curve].

In the case of `CC(C)CCOC(=O)C[N+](C)(C)CCOC1CC2CCC1(C)C2(C)C` (stereo unspecified), the AC50 [2] is reported as 0.0501 µM [rising, full curve, poor fit].

In the case of `CCOc1ccc(NC(=S)Nc2ccccc2C2(C)CC2)cc1`, the AC50 [2] is reported as 1.26 µM [falling, full curve, poor fit] and the AC50 [1] is reported as 1.12 µM [falling, full curve, poor fit].

For `CCOc1cccc(C(=O)Nc2nc(-c3ccc(S(=O)(=O)N4CCOCC4)cc3)cs2)c1`, the AC50 [2] was 7.94 µM [rising, partial curve, poor fit].

For `O=[N+]([O-])c1ccc(Oc2ccc(F)cc2)c2ccncc12`, the AC50 [2] was 15.8 µM [rising, single point] and the AC50 [1] was 31.6 µM [rising, single point].

In the case of `COc1ccc(Cc2nc(N)nc(N)n2)cc1`, the AC50 [2] is reported as 12.6 µM [rising, single point].

In the case of `N#C/C(=N\Nc1ccc(S(=O)(=O)N2CCCCC2)cc1)C(N)=S`, the AC50 [1] is reported as 14.1 µM [rising, partial curve].

For `COc1cccc(C2CCCN2Cc2nc(-c3sccc3C)oc2C)c1` (stereo unspecified), the AC50 [2] was 17.8 µM [falling, single point].

In the case of `Cc1nc(CSc2nsc(C)c2C#N)cs1`, the AC50 [2] is reported as 22.4 µM [falling, partial curve].

In the case of `CC1(C)CC(NC(=O)c2sc3cc(Cl)ccc3c2Cl)CC(C)(C)N1`, the AC50 [2] is reported as 0.00631 µM [falling, full curve].

With `Nc1nc2ccc(S(=O)(=O)c3ccc4nc(N)sc4c3)cc2s1` the AC50 [1] was 17.8 µM [rising, single point].

For `CCCN(CCC)S(=O)(=O)c1ccc(C(=O)Nc2nnc(-c3cc(OC)cc(OC)c3)o2)cc1`, the AC50 [1] was 0.126 µM [rising, full curve].

In the case of `OC(CCCN1CCCCC1)(c1ccccc1)c1ccccc1`, the AC50 [1] is reported as 20 µM [rising, single point].

For `CCCC(=O)c1ccc(N2CCN(C(=O)c3ccccc3Br)CC2)c(F)c1`, the AC50 [2] was 35.5 µM [rising, single point] and the AC50 [1] was 25.1 µM [rising, single point].

With `COC(=O)C1=C(C)N(C)C(=O)NC1c1cc(Cl)cc(Cl)c1OC` (stereo unspecified) the AC50 [2] was 7.08 µM [rising, full curve, poor fit].

For `Nc1ccc(C(=O)NCc2ccccc2)cc1`, the AC50 [1] was 0.355 µM [rising, full curve, poor fit].

For `CCN(CC)CCOC(=O)C(c1ccccc1)c1ccccc1`, the AC50 [2] was 0.398 µM [falling, full curve] and the AC50 [1] was 0.562 µM [falling, full curve].

For `Cc1ccccc1-n1nc2c(c1NC(=O)/C=C\c1ccc3c(c1)OCO3)CSC2`, the AC50 [1] was 14.1 µM [rising, single point].

With `COCCCNC(=O)c1nn(C)c2c1CS(=O)(=O)c1ccccc1-2` the AC50 [2] was 0.0631 µM [falling, full curve, poor fit] and the AC50 [1] was 0.0398 µM [falling, full curve].

With `COC(=O)c1ccc(COc2ccccc2/C=N/NS(=O)(=O)c2ccc(C)cc2)cc1` the AC50 [2] was 11.2 µM [falling, partial curve] and the AC50 [1] was 11.2 µM [falling, partial curve].

For `CC(=O)NC1(C(Cl)(Cl)Cl)Oc2ccccc2O1`, the AC50 [2] was 17.8 µM [falling, single point] and the AC50 [1] was 25.1 µM [falling, single point].

With `CCN(CC)S(=O)(=O)c1ccc(C(=O)NC(C)(C)C)cc1` the AC50 [1] was 1.26 µM [falling, full curve, poor fit].

In the case of `COc1cc([N+](=O)[O-])c(C(=O)N2CCOCC2)c([N+](=O)[O-])c1`, the AC50 [2] is reported as 0.00891 µM [falling, full curve, poor fit].

For `Cc1ccc(C(=O)/C=C\NCc2ccccc2)cc1`, the AC50 [2] was 0.224 µM [rising, full curve, poor fit].

With `Cc1cc(C(F)(F)F)nc(SCCN2CCOCC2)c1C#N` the AC50 [2] was 0.00355 µM [rising, full curve] and the AC50 [1] was 0.00355 µM [rising, full curve, poor fit].

With `COc1cccc(CNC(=O)CCC2CCCN(C(=O)c3cccc(Cl)c3)C2)c1` (stereo unspecified) the AC50 [2] was 5.62 µM [falling, full curve] and the AC50 [1] was 6.31 µM [falling, full curve].

For `O=C(Nc1ccc(N2CCOCC2)c(Cl)c1)c1cc(F)c(F)cc1Cl`, the AC50 [1] was 31.6 µM [rising, single point].

For `Cc1ccc(C(=O)Nc2cc3ccccc3oc2=O)cc1`, the AC50 [2] was 0.01 µM [falling, full curve, poor fit].

With `O=[N+]([O-])c1cccc(S(=O)(=O)Nc2nc3ccccc3nc2Nc2cccc(S(=O)(=O)N3CCCCC3)c2)c1` the AC50 [1] was 2.51 µM [rising, single point].

In the case of `COc1ccc(Cc2nc(C(=O)Nc3ccc(Cl)cc3)cs2)cc1`, the AC50 [1] is reported as 14.1 µM [rising, partial curve].

For `CN(Cc1ccco1)c1nc(-c2cccnc2)nc2ccccc12`, the AC50 [1] was 35.5 µM [falling, single point].

With `CCCc1nc2ccccc2c(C(=O)OCc2nnc(-c3cc(OC)c(OC)c(OC)c3)o2)c1CC` the AC50 [1] was 22.4 µM [rising, single point].

In the case of `COc1ccc(NC(=O)c2ccccc2-c2ccccc2)cc1`, the AC50 [2] is reported as 0.631 µM [falling, full curve].

For `Cc1cc(O)ccc1N=Cc1c(C(F)(F)F)[nH][nH]c1=O`, the AC50 [2] was 35.5 µM [falling, single point] and the AC50 [1] was 35.5 µM [falling, single point].

For `CC1(CC(=O)N/N=C/c2cc(Br)c(O)cc2O)OCCO1`, the AC50 [2] was 10 µM [falling, partial curve, poor fit].

For `CCOC(=O)c1sc(Nc2nc3c(OC)cccc3s2)nc1C`, the AC50 [1] was 14.1 µM [rising, partial curve].

For `COc1ccc(NCc2cccn2-c2nnc(N3CCOCC3)s2)cc1OC`, the AC50 [1] was 2.51 µM [falling, full curve, poor fit].

With `CCOC(=O)c1ccc(N=c2scc(C)n2CC)cc1` the AC50 [2] was 0.0355 µM [falling, full curve, poor fit].

With `NC(=S)N/N=C/c1ccc(-c2cc(Cl)ccc2Cl)o1` the AC50 [1] was 8.91 µM [falling, partial curve, poor fit].

With `COc1ccc(Nc2nc(-c3sc(NC(C)=O)nc3C)cs2)cc1` the AC50 [1] was 17.8 µM [falling, partial curve, poor fit].

In the case of `O=S(=O)(c1cccc2nsnc12)N1CCN(c2ccccc2F)CC1`, the AC50 [2] is reported as 35.5 µM [falling, single point] and the AC50 [1] is reported as 35.5 µM [falling, partial curve, poor fit].

Source: PubChem BioAssay AID1487 (National Center for Advancing Translational Sciences (NCATS), 2009)
